Values of other authors, collected in patent US20210138039A1, “PAIN RESPONSE MEDIATOR COMPOSITIONS AND METHODS FOR MAKING AND USING SAME” (Q-STATE BIOSCIENCES, INC., priority 2017, published 2021).
At least one structure is not confirmed: it was looked up by name or label, or the drawing left a doubt. No end group written: not given here.

Tested on: mice
Settings: injection in mice; cited from earlier work

For RPPGFSPFR [BK, Bradykinin], the pain on injection is given as “cause local pain”.
